In article PMC2794458:
Results are given in words; binding and its absence hold for the method and conditions named. Binding seen in cells or lysates may run through a third protein. For some assays here: Binding can be weak; no strength is given. Sequences can lack the tags named with a protein.

Amino acid sequences for entries named in this document (tags omitted). A change or cut given only in a name is not applied to a line headed by its entry.
UniProt Q06512: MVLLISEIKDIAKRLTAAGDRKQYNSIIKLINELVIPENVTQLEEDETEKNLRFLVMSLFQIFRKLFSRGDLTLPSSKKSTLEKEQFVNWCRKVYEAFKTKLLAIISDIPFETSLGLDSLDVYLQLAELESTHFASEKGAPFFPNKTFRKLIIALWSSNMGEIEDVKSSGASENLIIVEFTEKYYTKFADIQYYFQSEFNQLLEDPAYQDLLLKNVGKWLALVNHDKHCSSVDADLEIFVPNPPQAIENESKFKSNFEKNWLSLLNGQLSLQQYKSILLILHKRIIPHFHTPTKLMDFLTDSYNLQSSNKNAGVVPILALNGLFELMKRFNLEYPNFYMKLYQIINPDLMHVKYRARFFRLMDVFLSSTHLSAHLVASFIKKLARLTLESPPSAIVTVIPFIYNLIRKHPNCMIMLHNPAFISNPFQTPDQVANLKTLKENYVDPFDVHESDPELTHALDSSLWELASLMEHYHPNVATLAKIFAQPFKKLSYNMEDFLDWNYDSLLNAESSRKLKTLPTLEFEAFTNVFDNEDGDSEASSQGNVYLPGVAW

B1: Nop14p-HA (protein, UniProt Q99207 1-810)
chain: MAGSQLKNLKAALKARGLTGQTNVKSKNKKNSKRQAKEYDREEKKKAIAEIREEFNPFEIKAARNKRRDGLPSKTADRIAVGKPGISKQIGEEQRKRAFEARKMMKNKRGGVIDKRFGERDKLLTEEEKMLERFTRERQSQSKRNANLFNLEDDEDDGDMFGDGLTHLGQSLSLEDELANDEEDFLASKRFNEDDAELQQPQRKKTKAEVMKEVIAKSKFYKQERQKAQGIMEDQIDNLDDNFEDVMSELMMTQPKKNPMEPKTDLDKEYDIKVKELQLDKRAAPSDRTKTEEEKNAEAEEKKRELEQQRLDRMNGMIELEEGEERGVEDLDDGFWENEEDYEDDNDGIADSDDDIKFEDQGRDEGFSQILKKKNISISCPRTHDALLDQVKKLDLDDHPKIVKNIIKAYQPKLAEGNKEKLGKFTAVLLRHIIFLSNQNYLKNVQSFKRTQNALISILKSLSEKYNRELSEECRDYINEMQARYKKNHFDALSNGDLVFFSIIGILFSTSDQYHLVITPALILMSQFLEQIKFNSLKRIAFGAVLVRIVSQYQRISKRYIPEVVYFFQKILLTFIVEKENQEKPLDFENIRLDSYELGLPLDVDFTKKRSTIIPLHTLSTMDTEAHPVDQCVSVLLNVMESLDATISTVWKSLPAFNEIILPIQQLLSAYTSKYSDFEKPRNILNKVEKLTKFTEHIPLALQNHKPVSIPTHAPKYEENFNPDKKSYDPDRTRSEINKMKAQLKKERKFTMKEIRKDAKFEARQRIEEKNKESSDYHAKMAHIVNTINTEEGAEKNKYERERKLRGGKK

How the values were obtained:
[1] = biological target: T1, Nop14p-HA (S. cerevisiae) (UniProt Q99207); test: co-IP; HA-tagged Nop14p immunoprecipitated with anti HA antibodies from the corresponding yeast cell extracts; co-precipitated Noc4p variants analysed (Fig. S1B)
T1 sequence: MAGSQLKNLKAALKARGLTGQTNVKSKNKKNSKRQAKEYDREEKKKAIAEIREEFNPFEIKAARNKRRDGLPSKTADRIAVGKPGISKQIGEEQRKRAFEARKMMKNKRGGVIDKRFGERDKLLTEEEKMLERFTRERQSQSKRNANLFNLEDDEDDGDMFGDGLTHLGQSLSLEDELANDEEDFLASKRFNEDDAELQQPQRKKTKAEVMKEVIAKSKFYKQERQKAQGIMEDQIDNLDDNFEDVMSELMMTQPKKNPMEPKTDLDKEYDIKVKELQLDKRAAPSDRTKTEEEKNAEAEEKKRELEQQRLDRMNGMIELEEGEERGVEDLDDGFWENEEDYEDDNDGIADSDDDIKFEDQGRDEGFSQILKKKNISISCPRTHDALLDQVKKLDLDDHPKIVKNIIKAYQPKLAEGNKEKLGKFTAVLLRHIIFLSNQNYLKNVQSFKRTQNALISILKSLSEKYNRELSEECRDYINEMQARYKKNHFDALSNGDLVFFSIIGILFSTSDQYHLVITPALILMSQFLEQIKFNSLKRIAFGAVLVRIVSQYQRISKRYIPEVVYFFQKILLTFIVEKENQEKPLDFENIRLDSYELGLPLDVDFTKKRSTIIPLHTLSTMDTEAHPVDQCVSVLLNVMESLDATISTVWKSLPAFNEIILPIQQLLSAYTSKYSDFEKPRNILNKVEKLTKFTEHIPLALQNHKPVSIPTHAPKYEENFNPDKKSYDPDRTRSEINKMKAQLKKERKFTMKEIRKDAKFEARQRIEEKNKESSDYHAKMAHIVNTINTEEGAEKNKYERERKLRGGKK

[2] = biological target: ProtA-Noc4p lacking Domain 1 to 4 (S. cerevisiae); test: co-IP; ProtA-Noc4p variants affinity purified on IgG-Sepharose from extracts of yeast ToY489 after 16 h on glucose to shut off wild-type NOC4; buffer A200 (200 mM KCl, 20 mM Tris pH 8.0, 5 mM MgAc, 1 mM DTT), 4°C; Nop14p-HA detected by Western blot with anti-HA
[3] = biological target: ProtA-Noc4p lacking Domain 5 (S. cerevisiae) (UniProt Q06512); test: as above
[4] = biological target: ProtA-Noc4p lacking Domain 8 (S. cerevisiae); test: as above

| Molecule | binding [1] | also measured |
| --- | --- | --- |
| ProtA-Noc4p lacking Domain 5 (from UniProt Q06512) | binds |  |
| ProtA-Noc4p lacking Domain 1 to 4 (S. cerevisiae) (domain or fragment) | binds |  |
| ProtA-Noc4p lacking Domain 7 (Noc-domain) (from UniProt Q06512) | no binding |  |
| ProtA-Noc4p lacking Domain 8 (S. cerevisiae) (domain or fragment) | no binding |  |
| ProtA-Noc4p lacking Domain 6 (from UniProt Q06512) | no binding |  |
| B1 |  | binding [2]: binds; binding [3]: binds; binding [4]: no binding |
